Patent publication US20170306346A1
These are yes or no findings as the source states them, for the method shown. Binding seen in cells or lysates may run through a third protein. Some binding calls cover weakened binding; strength is not graded here. Where a sequence is shown, tags or fusion partners need not be part of it.

Chains of the proteins cited; added tags and fusions are not shown.
UniProt Q39204: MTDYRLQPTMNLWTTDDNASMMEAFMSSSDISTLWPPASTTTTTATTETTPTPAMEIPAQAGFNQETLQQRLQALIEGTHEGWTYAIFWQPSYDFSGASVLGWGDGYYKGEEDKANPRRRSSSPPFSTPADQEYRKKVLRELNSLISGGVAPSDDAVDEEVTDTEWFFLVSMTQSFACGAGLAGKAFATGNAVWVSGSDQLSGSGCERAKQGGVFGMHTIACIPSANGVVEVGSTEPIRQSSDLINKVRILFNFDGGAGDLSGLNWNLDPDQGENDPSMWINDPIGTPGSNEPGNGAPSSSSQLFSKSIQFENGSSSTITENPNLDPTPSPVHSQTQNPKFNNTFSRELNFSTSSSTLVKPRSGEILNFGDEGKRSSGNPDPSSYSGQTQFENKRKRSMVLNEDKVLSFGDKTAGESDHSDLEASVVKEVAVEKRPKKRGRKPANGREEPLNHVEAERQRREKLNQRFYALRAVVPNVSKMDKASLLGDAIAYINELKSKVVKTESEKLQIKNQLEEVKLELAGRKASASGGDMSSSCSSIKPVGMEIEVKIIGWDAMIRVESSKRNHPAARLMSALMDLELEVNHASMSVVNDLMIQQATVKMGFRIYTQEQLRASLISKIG

What was measured:
[1] = molecular target: GST-AtUBC36 (Arabidopsis) [GST: P08515]; experiment: in vitro pull-down, MBP-PUB11 with GST-AtUBC36, anti-MBP antibody (FIG. 9)
[2] = molecular target: GST-AtUBC2 (Arabidopsis) [GST: P08515]; experiment: in vitro pull-down, MBP-PUB11 with GST-AtUBC2
[3] = molecular target: GST-MYC2-HA (Arabidopsis thaliana) (UniProt Q39204); experiment: in vitro pull-down, MBP-PUB11 bait, GST-MYC2 prey, anti-GST Western blot
[4] = molecular target: GST-AtUBC8 (Arabidopsis) [GST: P08515]; experiment: in vitro pull-down, MBP-PUB11 with GST-AtUBC8
[5] = molecular target: GST-AtUBC8 (Arabidopsis) [GST: P08515]; experiment: in vitro pull-down, MBP-PUB11 with GST-AtUBC8, anti-MBP antibody (FIG. 9)
[6] = molecular target: T1, GST-AtUBC31 (Arabidopsis) (UniProt Q9C8X7); experiment: in vitro pull-down, MBP-PUB11 with GST-AtUBC31, anti-MBP antibody (FIG. 9)
T1 sequence: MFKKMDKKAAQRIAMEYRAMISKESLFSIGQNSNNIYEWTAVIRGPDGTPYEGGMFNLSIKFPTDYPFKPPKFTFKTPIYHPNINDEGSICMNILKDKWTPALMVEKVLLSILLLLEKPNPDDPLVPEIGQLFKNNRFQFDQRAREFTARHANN

[7] = molecular target: GST-MYC2-HA (Arabidopsis thaliana) (UniProt Q39204); experiment: in vitro pull-down, MBP-PUB11 bait, GST-MYC2 prey, anti-GST antibody (FIG. 7B)
[8] = molecular target: GST-AtUBC2 (Arabidopsis) [GST: P08515]; experiment: in vitro pull-down, MBP-PUB11 with GST-AtUBC2, anti-MBP antibody (FIG. 9)
[9] = molecular target: T1, GST-AtUBC31 (Arabidopsis); experiment: in vitro pull-down, MBP-PUB11 with GST-AtUBC31
[10] = molecular target: GST-AtUBC36 (Arabidopsis) [GST: P08515]; experiment: in vitro pull-down, MBP-PUB11 with GST-AtUBC36

Measured: binding

B1: MBP-PUB11-myc (enzyme, not shown: large carriers; small tags and cut ends)
chain: MAGGIVSPASLLDLIADIVEIPLNTGMFKKDCADLTRRVCLLTHLLEEIRDSTPIDSAASSSSENDWWSDLVVGLQAAKRLLSTARFQARDSSDGAAKRISFQFQCVTWKLEKALSNLPYDLYDISDEVGEQVELARSQLRRAMQRYGSLNSNKFSSALSEPMERDGFSNVIKIKAEEKLESVSETLHFGEEEEKQSSPPLRRSSSISLAYYLSKDADTDRLDKMVNKNTDESKKSDKLTIPVDFLCPVSLELMKDPVIVATGQTYERAYIQRWIDCGNLTCPKTQQKLENFTLTPNYVLRSLISRWCAEHNIEQPAGYINGRTKNSGDMSVIRALVQRLSSRSTEDRRNAVSEIRSLSKRSTDNRILIAEAGAIPVLVNLLTSEDVATQENAITCVLNLSIYENNKELIMFAGAVTSIVQVLRAGTMEARENAAATLFSLSLADENKIIIGGSGAIPALVDLLENGTPRGKKDAATALFNLCIYHGNKGRAVRAGIVTALVKMLSDSTRHRMVDEALTILSVLANNQDAKSAIVKANTLPALIGILQTDQTRNRENAAAILLSLCKRDTEKLITIGRLGAVVPLMDLSKNGTERGKRKAISLLELLRKACQ
binds: all assays above
